Measured values published in paper PMC9525119.
These are yes or no findings as the source states them, for the method shown. In cells and extracts the contact can be indirect. Some binding calls cover weakened binding; strength is not graded here.

By UniProt entry, the sequences of proteins in these tests, tags left out.
UniProt Q8BG87: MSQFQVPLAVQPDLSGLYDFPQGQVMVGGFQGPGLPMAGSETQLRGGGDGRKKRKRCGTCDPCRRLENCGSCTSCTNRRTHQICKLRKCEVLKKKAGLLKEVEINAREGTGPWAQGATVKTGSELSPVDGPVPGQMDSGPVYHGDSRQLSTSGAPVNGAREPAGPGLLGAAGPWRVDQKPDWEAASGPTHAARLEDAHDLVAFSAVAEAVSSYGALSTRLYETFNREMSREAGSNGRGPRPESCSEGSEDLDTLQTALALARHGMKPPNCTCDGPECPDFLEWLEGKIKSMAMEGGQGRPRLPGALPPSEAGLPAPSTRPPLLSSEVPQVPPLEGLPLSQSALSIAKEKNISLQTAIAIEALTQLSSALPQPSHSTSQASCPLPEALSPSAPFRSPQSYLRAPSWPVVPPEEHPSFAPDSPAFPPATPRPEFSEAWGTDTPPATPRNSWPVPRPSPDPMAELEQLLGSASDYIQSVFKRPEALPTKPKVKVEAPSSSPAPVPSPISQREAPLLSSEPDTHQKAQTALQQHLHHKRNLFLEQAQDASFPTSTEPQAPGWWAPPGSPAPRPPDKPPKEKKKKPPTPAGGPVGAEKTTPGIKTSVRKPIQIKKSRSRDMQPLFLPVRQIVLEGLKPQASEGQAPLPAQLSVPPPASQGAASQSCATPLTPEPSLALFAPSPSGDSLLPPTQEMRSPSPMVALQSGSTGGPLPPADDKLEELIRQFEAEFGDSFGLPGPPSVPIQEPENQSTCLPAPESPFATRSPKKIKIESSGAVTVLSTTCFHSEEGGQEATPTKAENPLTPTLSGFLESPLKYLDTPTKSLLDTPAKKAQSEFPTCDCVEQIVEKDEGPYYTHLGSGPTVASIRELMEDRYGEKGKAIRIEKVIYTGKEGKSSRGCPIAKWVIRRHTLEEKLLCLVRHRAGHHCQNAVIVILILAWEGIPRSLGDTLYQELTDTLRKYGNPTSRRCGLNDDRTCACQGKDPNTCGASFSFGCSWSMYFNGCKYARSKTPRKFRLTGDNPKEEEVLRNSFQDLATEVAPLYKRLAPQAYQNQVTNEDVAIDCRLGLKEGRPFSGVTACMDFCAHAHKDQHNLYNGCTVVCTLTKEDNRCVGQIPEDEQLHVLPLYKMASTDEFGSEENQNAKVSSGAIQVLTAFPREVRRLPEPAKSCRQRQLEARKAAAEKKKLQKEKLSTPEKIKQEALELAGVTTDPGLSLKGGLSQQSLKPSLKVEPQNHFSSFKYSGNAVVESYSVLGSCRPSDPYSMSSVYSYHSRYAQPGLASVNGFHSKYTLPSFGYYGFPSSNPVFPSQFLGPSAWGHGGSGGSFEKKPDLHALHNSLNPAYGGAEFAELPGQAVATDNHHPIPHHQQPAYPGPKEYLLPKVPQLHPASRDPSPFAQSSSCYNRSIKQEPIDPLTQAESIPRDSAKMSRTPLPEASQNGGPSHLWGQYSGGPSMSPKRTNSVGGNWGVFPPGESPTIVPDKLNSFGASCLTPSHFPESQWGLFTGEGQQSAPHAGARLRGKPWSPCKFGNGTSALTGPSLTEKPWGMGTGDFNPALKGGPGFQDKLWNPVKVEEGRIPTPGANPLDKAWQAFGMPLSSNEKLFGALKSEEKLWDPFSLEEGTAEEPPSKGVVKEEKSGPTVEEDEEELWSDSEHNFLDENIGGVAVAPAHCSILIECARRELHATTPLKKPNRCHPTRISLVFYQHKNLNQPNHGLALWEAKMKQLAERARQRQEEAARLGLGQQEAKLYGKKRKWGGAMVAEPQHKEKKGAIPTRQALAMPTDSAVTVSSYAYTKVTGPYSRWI
UniProt O43151: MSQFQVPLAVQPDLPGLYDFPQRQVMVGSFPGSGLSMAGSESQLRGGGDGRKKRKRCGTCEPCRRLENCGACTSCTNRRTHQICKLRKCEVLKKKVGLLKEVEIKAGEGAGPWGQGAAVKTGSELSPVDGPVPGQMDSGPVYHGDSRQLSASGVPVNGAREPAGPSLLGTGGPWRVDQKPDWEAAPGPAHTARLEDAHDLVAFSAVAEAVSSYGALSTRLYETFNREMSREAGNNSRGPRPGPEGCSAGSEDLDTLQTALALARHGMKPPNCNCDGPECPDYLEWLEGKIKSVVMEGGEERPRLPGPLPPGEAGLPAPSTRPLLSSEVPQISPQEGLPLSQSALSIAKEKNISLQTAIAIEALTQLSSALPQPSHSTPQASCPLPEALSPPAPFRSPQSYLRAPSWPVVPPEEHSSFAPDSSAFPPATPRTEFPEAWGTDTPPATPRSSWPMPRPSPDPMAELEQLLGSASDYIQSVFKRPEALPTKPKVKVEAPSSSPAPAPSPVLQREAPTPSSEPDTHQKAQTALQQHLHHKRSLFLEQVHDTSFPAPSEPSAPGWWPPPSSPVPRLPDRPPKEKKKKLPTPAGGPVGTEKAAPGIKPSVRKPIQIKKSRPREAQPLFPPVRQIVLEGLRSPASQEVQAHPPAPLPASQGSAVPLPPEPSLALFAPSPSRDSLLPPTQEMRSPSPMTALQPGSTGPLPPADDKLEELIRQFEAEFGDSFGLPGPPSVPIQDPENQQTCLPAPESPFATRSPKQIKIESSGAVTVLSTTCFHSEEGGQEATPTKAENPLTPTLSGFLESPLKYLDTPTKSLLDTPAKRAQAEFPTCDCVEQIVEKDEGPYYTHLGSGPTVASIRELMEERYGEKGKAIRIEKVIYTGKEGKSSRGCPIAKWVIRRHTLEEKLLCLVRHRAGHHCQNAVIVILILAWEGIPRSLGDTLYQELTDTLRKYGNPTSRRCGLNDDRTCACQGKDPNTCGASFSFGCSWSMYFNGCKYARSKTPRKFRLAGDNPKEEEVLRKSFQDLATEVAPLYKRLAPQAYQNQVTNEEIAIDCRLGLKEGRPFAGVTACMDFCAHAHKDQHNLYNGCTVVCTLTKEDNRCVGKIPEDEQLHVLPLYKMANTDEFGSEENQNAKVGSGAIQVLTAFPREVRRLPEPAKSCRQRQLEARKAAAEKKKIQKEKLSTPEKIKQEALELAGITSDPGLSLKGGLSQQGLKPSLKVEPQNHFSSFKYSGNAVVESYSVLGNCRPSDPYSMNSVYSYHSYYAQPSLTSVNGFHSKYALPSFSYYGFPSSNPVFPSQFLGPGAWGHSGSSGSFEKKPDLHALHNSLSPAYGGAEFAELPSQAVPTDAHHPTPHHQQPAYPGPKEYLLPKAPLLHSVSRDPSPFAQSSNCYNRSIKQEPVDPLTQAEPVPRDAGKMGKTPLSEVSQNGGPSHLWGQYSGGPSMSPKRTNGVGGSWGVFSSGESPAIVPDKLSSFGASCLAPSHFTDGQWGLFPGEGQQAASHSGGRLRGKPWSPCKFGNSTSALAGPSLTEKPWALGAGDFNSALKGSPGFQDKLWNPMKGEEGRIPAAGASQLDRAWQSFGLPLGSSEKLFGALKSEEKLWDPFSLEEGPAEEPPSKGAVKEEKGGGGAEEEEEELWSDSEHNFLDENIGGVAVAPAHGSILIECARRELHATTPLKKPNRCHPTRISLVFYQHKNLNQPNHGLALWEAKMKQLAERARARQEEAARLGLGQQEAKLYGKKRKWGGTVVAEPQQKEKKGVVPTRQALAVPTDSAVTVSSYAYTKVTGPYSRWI
UniProt Q6NZM9: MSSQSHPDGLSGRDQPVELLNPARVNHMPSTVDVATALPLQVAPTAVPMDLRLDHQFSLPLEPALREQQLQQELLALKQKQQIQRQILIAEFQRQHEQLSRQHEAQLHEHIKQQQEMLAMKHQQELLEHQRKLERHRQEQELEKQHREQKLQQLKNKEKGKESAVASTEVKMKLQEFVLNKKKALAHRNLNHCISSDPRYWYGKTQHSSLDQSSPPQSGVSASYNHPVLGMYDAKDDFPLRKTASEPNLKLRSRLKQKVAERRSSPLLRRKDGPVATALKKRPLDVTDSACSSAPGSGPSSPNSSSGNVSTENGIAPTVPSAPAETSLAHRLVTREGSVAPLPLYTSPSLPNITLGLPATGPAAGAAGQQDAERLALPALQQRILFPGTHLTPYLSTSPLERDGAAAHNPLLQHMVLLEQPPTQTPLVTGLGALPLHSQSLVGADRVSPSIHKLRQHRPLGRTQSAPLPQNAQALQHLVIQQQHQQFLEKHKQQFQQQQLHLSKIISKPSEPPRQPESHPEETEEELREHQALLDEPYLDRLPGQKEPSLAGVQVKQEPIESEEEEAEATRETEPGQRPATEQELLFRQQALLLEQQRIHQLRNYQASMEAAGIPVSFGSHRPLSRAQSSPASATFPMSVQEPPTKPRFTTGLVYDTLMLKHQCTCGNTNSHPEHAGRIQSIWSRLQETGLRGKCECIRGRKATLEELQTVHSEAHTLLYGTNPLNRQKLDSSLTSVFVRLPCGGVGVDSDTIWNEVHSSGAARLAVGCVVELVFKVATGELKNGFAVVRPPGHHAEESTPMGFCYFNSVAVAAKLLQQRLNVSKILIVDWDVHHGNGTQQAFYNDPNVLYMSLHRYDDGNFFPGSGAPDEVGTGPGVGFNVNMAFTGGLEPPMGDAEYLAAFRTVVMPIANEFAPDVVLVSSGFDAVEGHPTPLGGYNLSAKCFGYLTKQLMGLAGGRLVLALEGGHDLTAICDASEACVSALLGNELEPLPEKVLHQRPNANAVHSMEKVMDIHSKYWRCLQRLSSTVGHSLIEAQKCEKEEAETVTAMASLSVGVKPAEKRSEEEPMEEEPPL
UniProt P40763: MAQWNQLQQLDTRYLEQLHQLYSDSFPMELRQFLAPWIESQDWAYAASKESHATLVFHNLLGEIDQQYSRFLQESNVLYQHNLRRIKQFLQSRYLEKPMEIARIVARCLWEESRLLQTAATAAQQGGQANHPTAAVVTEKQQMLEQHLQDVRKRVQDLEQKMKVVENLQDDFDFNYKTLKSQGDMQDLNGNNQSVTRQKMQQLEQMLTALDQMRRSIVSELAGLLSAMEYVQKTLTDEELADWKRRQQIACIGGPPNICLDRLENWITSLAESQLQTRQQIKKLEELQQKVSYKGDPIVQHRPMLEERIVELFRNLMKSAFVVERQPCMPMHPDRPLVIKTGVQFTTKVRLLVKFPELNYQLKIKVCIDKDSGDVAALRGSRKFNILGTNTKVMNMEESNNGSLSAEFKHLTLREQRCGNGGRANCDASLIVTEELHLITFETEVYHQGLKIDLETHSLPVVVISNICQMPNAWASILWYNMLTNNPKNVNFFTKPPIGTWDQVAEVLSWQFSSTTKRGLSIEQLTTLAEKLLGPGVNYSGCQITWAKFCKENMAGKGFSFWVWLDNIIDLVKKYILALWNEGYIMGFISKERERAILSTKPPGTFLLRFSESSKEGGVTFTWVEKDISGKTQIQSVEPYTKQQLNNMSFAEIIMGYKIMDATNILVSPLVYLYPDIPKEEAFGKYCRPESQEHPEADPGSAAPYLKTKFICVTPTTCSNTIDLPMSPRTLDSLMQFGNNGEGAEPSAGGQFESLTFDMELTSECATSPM
UniProt P42227: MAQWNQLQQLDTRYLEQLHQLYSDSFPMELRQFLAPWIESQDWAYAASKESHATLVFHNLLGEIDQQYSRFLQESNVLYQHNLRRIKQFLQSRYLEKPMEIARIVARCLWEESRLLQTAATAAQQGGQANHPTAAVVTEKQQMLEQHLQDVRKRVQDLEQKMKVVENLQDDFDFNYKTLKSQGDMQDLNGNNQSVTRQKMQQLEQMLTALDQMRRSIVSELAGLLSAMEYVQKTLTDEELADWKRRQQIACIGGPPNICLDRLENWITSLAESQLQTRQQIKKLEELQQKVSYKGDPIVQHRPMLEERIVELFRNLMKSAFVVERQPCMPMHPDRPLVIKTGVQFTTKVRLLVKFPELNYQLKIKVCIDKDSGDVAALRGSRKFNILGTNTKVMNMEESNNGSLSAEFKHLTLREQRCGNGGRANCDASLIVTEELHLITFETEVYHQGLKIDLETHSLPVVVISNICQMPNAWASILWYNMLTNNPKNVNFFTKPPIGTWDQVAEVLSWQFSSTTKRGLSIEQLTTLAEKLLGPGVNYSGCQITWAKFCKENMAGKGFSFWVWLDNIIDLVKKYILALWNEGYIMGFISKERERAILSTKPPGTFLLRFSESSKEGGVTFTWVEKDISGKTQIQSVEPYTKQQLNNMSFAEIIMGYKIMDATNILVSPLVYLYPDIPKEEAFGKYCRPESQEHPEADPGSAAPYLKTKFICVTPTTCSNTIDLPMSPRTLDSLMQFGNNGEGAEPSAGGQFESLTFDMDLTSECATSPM

Legend:
[1] = target: TET3 (mouse) (mouse (endogenous in ARC tissue and GT1-7 cells)) (UniProt Q8BG87); test: co-IP; anti-TET3 (rabbit polyclonal) on Protein G Dynabeads; lysate of ARCs from mice fasted 22 hours and treated with leptin 2 hours; 0.5% Triton X-100, NaCl to 200 mM, 4°C, 4 hours; immunoblot; preimmune IgG as control
[2] = target: TET3 (mouse) (mouse (endogenous in ARC tissue and GT1-7 cells)) (UniProt Q8BG87); test: co-IP; anti-TET3 (rabbit polyclonal) on Protein G Dynabeads; lysate of mouse GT1-7 cells treated with Lept H (1 × 10^-8 M) for 2 hours; 0.5% Triton X-100, NaCl to 200 mM, 4°C, 4 hours; immunoblot
[3] = target: TET3 (human) (human (endogenous in SH-SY5Y)) (UniProt O43151); test: co-IP; anti-TET3 (rabbit polyclonal) on Protein G Dynabeads; lysate of human SH-SY5Y cells treated with Lept H (1 × 10^-8 M) for 2 hours; 0.5% Triton X-100, NaCl to 200 mM, 4°C, 4 hours; immunoblot

| Substance | binding [1] | binding [2] | binding [3] |
| --- | --- | --- | --- |
| HDAC4 (mouse) (from UniProt Q6NZM9 1-1076) | binds | binds |  |
| NCOR1 (human) (from UniProt O75376 1-2440) |  |  | binds |
| NCOR1 (mouse) (from UniProt Q60974 1-2453) | binds | binds |  |
| STAT3 (human) (from UniProt P40763 1-770) |  |  | binds |
| STAT3 (mouse) (from UniProt P42227 1-770) | binds | binds |  |
| p-STAT3 (human STAT3 phosphorylated at Tyr705) (from UniProt P40763 1-770) |  |  | binds |
| p-STAT3 (mouse STAT3 phosphorylated at Tyr705) (from UniProt P42227 1-770) | binds | binds |  |
